Data as given in PubChem BioAssay AID1671195 (Yale University, 2021)
Aim: 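Genes whose knockdown alters LDL uptake in liver cancer cells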 (primary screen). System: human Huh7 hepatoma cells. Reagents: siRNA pool against human genes, 18 nM. Time to read-out: about 2 to 2.5 days of knockdown, then 8 h LDL uptake. Challenge: DiI-labelled LDL at 30 µg/ml for 8 h, in lipoprotein-deficient serum medium. Measured: 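Per-cell DiI-LDL intensity by automated imaging; well means scaled to the plate median and given as a robust z-score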. Direction: robust z-score: higher = more LDL uptake after knockdown. Call rule: 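Active when two or more replicates show a robust z-score above 2 or below -2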.
Here is an unselected part of about 22,000 deposited reagents. About 1,510 of them (6.9%) were called active. 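Active includes knockdowns raising or lowering LDL uptake; positive z-scores mean more uptake, negative mean less.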 Entries without a mark were called inactive.

UBAP1 (ubiquitin associated protein 1) → robust z-score, replicate 1: -0.624; robust z-score, replicate 2: -0.38; robust z-score, replicate 3: -0.522
DDB2 (damage specific DNA binding protein 2) → robust z-score, replicate 1: -0.399; robust z-score, replicate 2: -1.68; robust z-score, replicate 3: -0.856
ENPP7 (ectonucleotide pyrophosphatase/phosphodiesterase 7) → robust z-score, replicate 1: -0.621; robust z-score, replicate 2: -0.417; robust z-score, replicate 3: 0.762
MXRA5 (matrix remodeling associated 5) → robust z-score, replicate 1: 2.27 (active); robust z-score, replicate 2: 3.28; robust z-score, replicate 3: 1.08
CLIC2 (CLIC family member 2) → robust z-score, replicate 1: -0.284; robust z-score, replicate 2: -0.318; robust z-score, replicate 3: 0.149
ANOS1 (anosmin 1) → robust z-score, replicate 1: 1.37; robust z-score, replicate 2: 0.57; robust z-score, replicate 3: 0.569
CASP2 (caspase 2) → robust z-score, replicate 1: 0.242; robust z-score, replicate 2: -0.163; robust z-score, replicate 3: 0.347
LOC440833 (retired record) → robust z-score, replicate 1: -1.47; robust z-score, replicate 2: -1.68; robust z-score, replicate 3: -1.39
TFEC (transcription factor EC) → robust z-score, replicate 1: 0.798; robust z-score, replicate 2: 0.841; robust z-score, replicate 3: 0.511
ANKRD20A8P (ankyrin repeat domain 20 family member A8, pseudogene) → robust z-score, replicate 1: 0.155; robust z-score, replicate 2: 0.0919; robust z-score, replicate 3: 0.526
HPX (hemopexin) → robust z-score, replicate 1: 0.633; robust z-score, replicate 2: 0.837; robust z-score, replicate 3: 0.602
F2RL1 (F2R like trypsin receptor 1) → robust z-score, replicate 1: -1.05; robust z-score, replicate 2: 0.327; robust z-score, replicate 3: -0.215
SERPINA10 (serpin family A member 10) → robust z-score, replicate 1: -0.939; robust z-score, replicate 2: -2.07; robust z-score, replicate 3: -0.772
LOC391707 (chromatin accessibility complex subunit 1 pseudogene) → robust z-score, replicate 1: 0.894; robust z-score, replicate 2: 0.123; robust z-score, replicate 3: -0.0404
LOC388069 (retired record) → robust z-score, replicate 1: 1.15; robust z-score, replicate 2: 0.859; robust z-score, replicate 3: 0.593
SLC41A3 → robust z-score, replicate 1: 2.52 (active); robust z-score, replicate 2: 3.18; robust z-score, replicate 3: 2.15

Already shown: an excerpt of the list.
F2RL1 (F2R like trypsin receptor 1) → robust z-score, replicate 1: -1.05; robust z-score, replicate 2: 0.327; robust z-score, replicate 3: -0.215
SERPINA10 (serpin family A member 10) → robust z-score, replicate 1: -0.939; robust z-score, replicate 2: -2.07; robust z-score, replicate 3: -0.772
